The source of these data is patent US12503448B2, “Antibacterial and antiparasitic quinoxaline-2,3-diamine derivatives” (University College Cardiff Consultants Limited, priority 2019, dated 2025).

A short description of this series: Metabolic stability in mouse liver microsomes.

Structures are written as SMILES.

Turning to `CN1C(=O)CN=C(c2ccccc2)c2cc(Cl)ccc21` [Diazepam, reference compound], the microsomal CLint at 1 μM (microsomes) came out at 457 µL/min/mg.

`CN(C)CCOC(c1ccccc1)c1ccccc1` [Diphenhydramine, reference compound] showed a microsomal CLint at 1 μM (liver microsomes) of 58.3 µL/min/mg.
